# In publication PMC6089664 (Clinical pharmacology and therapeutics, 2017):
# Where two headings read alike, the source gives them in different places.
# System: IFNα-stimulated STAT-1 phosphorylation (pSTAT-1)
# Conditions: Homo sapiens, read-out: IC50, IFN-α stimulated pSTAT-1
smiles,measurement,setting,value
"CCS(=O)(=O)N1CC(CC#N)(n2cc(-c3ncnc4[nH]ccc34)cn2)C1 [baricitinib, Baricitinib]",IC50,B-cell,190 nM
same,IC50,CD4+ T,51.1 nM
same,IC50,Monocyte,138 nM
same,IC50,T-cell,43.3 nM
